Measured values published in patent US9096591B2, “Tetracyclic compounds” (Medivation Technologies, Inc., priority 2007, dated 2015).
Some of these results come from one statement about several compounds together.

The molecules below were run on adrenergic receptors α1D, α2A, α2B; serotonin receptor 5-HT6; dopamine receptor D2L (assay: Classification of compounds (Type 1-4) from receptor binding and neurite outgrowth).
Text: Compounds of the invention that inhibit binding of a ligand to adrenergic receptors α1D, α2A, α2B and serotonin receptor 5-HT6 by at least about 80% as determined in a suitable assay such as the assays described herein can be classified as Type 1 compounds. […] In one variation, binding of a ligand to serotonin receptor 5-HT7 is at least about 80%. […] Weak inhibition of binding of a ligand to the histamine H1 receptor is permitted as agonists of this receptor have been implicated in stimulating memory as well as weight gain. In one variation, binding to histamine receptor H1 is inhibited by less than about 80%. […] Compounds that inhibit binding of a ligand to the dopamine D2L receptor by at least about 80% as determined in a suitable assay such as the assay described herein can be classified as Type 2 compounds.
In one variation, Type 1 compounds further inhibit binding of a ligand to dopamine receptor D2L by less than about 80% as determined in a suitable assay known in the art such as the assay described herein. […] In one variation, binding of a ligand to serotonin receptor 5-HT7, 5-HT2A and/or 5-HT2C is inhibited by at least about 80% as determined in a suitable assay such as the assays described herein. […] In one variation, binding of a ligand to histamine receptor H1 and/or H2 is inhibited by less than about 80% as determined by a suitable assay known in the art such as the assays described herein.
In one variation, biding to serotonin receptor 5-HT2A is inhibited by at least about 80% as determined in a suitable assay know in the art such as the assay described herein.

Q: For Cc1ccc(CCn2c3c(c4cc(C)ccc42)CN(C)CC3)cc1 [Compound 25, 2,3,4,5-tetrahydro-2,8-dimethyl-5-(4-methylphenethyl)-1H-pyrido[4,3-b]indole], which “compound type (classification by receptor binding profile and neurite outgrowth)” value (shortened to “compound type”) is on record?
A: Its value is “Type 2 (Compounds that inhibit binding of a ligand to the dopamine D2L receptor by at least about 80% as determined in a suitable assay such as the assay described herein can be classified as Type 2 compounds)”.

Q: Which “compound type” value does the source give for Cc1ccc2c(c1)c1c(n2CCc2ccccc2F)CCN(C)C1 [Compound 34, 5-(2-fluorophenethyl)-2,3,4,5-tetrahydro-2,8-dimethyl-1H-pyrido[4,3-b]indole] here?
A: Its value is “Type 2 (Compounds that inhibit binding of a ligand to the dopamine D2L receptor by at least about 80% as determined in a suitable assay such as the assay described herein can be classified as Type 2 compounds)”.

Q: With CN1CCc2c(c3cc(Cl)ccc3n2CCc2ccccc2)C1 [Compound 36, 8-chloro-2,3,4,5-tetrahydro-2-methyl-5-phenethyl-1H-pyrido[4,3-b]indole] as the molecule, how does the “compound type” value read?
A: Its value is “Type 2 (Compounds that inhibit binding of a ligand to the dopamine D2L receptor by at least about 80% as determined in a suitable assay such as the assay described herein can be classified as Type 2 compounds)”.

Q: COc1ccc(CCn2c3c(c4cc(C)ccc42)CN(C)CC3)cc1 [Compound 247] was tested. Which “compound type” value did it give?
A: The value was “Type 2 (Compounds that inhibit binding of a ligand to the dopamine D2L receptor by at least about 80% as determined in a suitable assay such as the assay described herein can be classified as Type 2 compounds)”.

Q: With CN1CCc2c(c3cc(F)ccc3n2CCc2ccc(F)cc2)C1 [Compound 253] as the molecule, how does the “compound type” value read?
A: The value was “Type 2 (Compounds that inhibit binding of a ligand to the dopamine D2L receptor by at least about 80% as determined in a suitable assay such as the assay described herein can be classified as Type 2 compounds)”.

Q: With COc1ccc(CCn2c3c(c4cc(Cl)ccc42)CN(C)CC3)cc1 [Compound 336, 8-Chloro-5-[2-(4-methoxy-phenyl)-ethyl]-2-methyl-2,3,4,5-tetrahydro-1H pyrido[4,3-b]indole] as the molecule, how does the “compound type” value read?
A: Its value is “Type 2 (Compounds that inhibit binding of a ligand to the dopamine D2L receptor by at least about 80% as determined in a suitable assay such as the assay described herein can be classified as Type 2 compounds)”.

Q: For COc1ccc(CCn2c3c(c4cc(Cl)ccc42)CN(C)CC3)cc1F [Compound 337, 5-(3-fluoro-4-methoxyphenethyl)-8-chloro-2,3,4,5-tetrahydro-2-methyl-1H-pyrido[4,3-b]indole], which “compound type” value is on record?
A: The value was “Type 2 (Compounds that inhibit binding of a ligand to the dopamine D2L receptor by at least about 80% as determined in a suitable assay such as the assay described herein can be classified as Type 2 compounds)”.

Q: With CN1CCc2c(c3cc(Cl)ccc3n2CCn2cccc2)C1 [Compound 349, 8-Chloro-2-methyl-5-(2-pyrrol-1-yl-ethyl)-2,3,4,5-tetrahydro-1H-pyrido[4,3-b]indole] as the molecule, how does the “compound type” value read?
A: Its value is “Type 2 (Compounds that inhibit binding of a ligand to the dopamine D2L receptor by at least about 80% as determined in a suitable assay such as the assay described herein can be classified as Type 2 compounds)”.

Q: How did the “compound type” value turn out when CC(Cn1c2c(c3ccccc31)CN(C)CC2)c1ccc(F)cc1 (stereo not drawn) [Compound 455] was run?
A: Its value is “Type 2 (Compounds that inhibit binding of a ligand to the dopamine D2L receptor by at least about 80% as determined in a suitable assay such as the assay described herein can be classified as Type 2 compounds)”.
